Experimental data from paper PMC9264908.
These are yes or no findings as the source states them, for the method shown. In cells and extracts the contact can be indirect.

The chains behind the UniProt entries cited, without tags or fusion partners. Residues count along the entry.
UniProt Q15116, residues 25-288: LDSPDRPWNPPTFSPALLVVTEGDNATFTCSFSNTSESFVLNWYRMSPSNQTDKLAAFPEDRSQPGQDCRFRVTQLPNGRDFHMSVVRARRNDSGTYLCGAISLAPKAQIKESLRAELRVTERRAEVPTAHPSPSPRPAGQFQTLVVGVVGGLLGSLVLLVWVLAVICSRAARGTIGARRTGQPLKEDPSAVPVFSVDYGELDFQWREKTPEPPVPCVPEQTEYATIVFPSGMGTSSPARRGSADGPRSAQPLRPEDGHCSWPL
UniProt P08581, residues 25-1390: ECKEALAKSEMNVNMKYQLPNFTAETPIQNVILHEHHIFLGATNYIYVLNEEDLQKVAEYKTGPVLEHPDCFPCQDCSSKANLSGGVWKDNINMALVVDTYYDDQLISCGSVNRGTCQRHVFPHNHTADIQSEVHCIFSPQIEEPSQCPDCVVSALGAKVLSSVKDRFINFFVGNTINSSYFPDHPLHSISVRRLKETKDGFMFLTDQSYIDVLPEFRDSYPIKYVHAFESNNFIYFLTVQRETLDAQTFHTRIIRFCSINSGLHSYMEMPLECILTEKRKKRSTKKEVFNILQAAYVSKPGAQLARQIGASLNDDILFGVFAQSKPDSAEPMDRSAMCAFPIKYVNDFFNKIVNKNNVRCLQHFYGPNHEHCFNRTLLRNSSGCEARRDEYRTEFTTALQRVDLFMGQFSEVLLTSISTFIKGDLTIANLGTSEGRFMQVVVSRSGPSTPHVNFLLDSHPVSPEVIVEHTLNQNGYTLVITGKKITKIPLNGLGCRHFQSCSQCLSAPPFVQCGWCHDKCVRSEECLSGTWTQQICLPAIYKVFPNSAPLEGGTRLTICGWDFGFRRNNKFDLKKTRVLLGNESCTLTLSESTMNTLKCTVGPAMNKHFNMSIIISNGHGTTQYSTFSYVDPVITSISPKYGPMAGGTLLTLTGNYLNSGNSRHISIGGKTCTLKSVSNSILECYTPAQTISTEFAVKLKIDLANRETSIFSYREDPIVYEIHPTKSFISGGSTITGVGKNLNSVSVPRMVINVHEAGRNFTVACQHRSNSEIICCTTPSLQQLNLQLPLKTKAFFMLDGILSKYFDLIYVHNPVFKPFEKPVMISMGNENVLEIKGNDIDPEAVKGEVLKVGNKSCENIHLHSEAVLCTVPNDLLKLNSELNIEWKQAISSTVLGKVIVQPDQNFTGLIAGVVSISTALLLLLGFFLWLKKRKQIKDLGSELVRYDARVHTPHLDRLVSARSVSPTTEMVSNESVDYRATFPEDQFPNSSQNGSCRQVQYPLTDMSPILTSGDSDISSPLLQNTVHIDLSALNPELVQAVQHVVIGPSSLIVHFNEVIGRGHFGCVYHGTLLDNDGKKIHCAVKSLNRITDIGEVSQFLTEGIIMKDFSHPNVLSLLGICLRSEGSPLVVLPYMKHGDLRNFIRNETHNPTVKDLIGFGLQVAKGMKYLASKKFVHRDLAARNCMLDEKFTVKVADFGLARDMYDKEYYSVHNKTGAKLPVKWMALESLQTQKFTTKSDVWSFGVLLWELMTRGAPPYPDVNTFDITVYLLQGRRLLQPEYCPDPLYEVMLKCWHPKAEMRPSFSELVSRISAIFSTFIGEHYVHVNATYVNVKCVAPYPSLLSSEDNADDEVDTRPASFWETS

Biological target: programmed cell death protein 1 (PD-1) (human (endogenous in PDAC cells)) (UniProt Q15116)
Assay: co-IP; PD-1 as bait: 1 mg pre-cleared PDAC cell lysate incubated overnight at 4 °C with 75 µg polyclonal anti-PD-1 or IgG; western blot with anti-MET and anti-PD-1 mAbs

c-MET (MET, mesenchymal-epithelial transition factor) (from UniProt P08581 25-1390) (receptor)
binding: no binding
